Test results published in paper PMC8384158.

Biological target: T1, TAP–Bag-1S (human), Q99933
T1 chain: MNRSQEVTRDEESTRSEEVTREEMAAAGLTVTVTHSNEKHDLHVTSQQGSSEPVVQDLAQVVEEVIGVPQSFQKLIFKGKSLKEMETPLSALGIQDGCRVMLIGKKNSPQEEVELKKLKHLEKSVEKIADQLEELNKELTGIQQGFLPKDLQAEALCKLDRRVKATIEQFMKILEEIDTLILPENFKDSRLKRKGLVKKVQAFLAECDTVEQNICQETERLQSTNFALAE
Experiment: affinity purification with mass spectrometry; TAP-tagged Bag-1 isoform or Bag-1S mutant in lysate of transfected MCF-7 cells, captured on IgG Sepharose overnight at 4°C, released with AcTEV protease; in-solution trypsin digest, LC-MS/MS, label-free; enrichment >1.2-fold relative to TAP-only mock (mutants relative to wild-type TAP–Bag-1S)
Settings: remark: other sources report otherwise

binding: no binding
B1: CHIP, Q9UNE7 1-303 (protein)
chain: MKGKEEKEGGARLGAGGGSPEKSPSAQELKEQGNRLFVGRKYPEAAACYGRAITRNPLVAVYYTNRALCYLKMQQHEQALADCRRALELDGQSVKAHFFLGQCQLEMESYDEAIANLQRAYSLAKEQRLNFGDDIPSALRIAKKKRWNSIEERRIHQESELHSYLSRLIAAERERELEECQRNHEGDEDDSHVRAQQACIEAKHDKYMADMDELFSQVDEKRKKRDIPDYLCGKISFELMREPCITPSGITYDRKDIEEHLQRVGHFDPVTRSPLTQEQLIPNLAMKEVIDAFISENGWVEDY

Results are given in words; binding and its absence hold for the method and conditions named. In cells and extracts the contact can be indirect. A yes stands for co-enrichment or nearness to the bait. Other partners may have been found. A no says only that the protein was not detected with the bait.
